# Assay results

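Vaccinia-infected cells with a two-color viral stage reporter; Venus fluorescence read on a plate reader; the cell line is not named here; timing not stated here.
The test concentration is not given here.
Percent change in Venus reporter signal; lower (more negative) values mean stronger inhibition of that viral stage.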

Values are in %.
The controls that fix the scale are not given here.
Common to all entries: measured here: Venus reporter, other viral stage.
This is a side read-out of the assay, for part of the compounds, not drawn at random.

SMILES	activity change (Venus) (%)
COc1ccc(S(=O)(=O)Nc2ccc3c(c2)C(=O)N([C@H](C)CO)C[C@@H](C)[C@H](CN(C)S(=O)(=O)c2cccs2)OCCCC[C@@H](C)O3)cc1	-41.43
COc1ccc(NC(=O)Nc2ccc3c(c2)C(=O)N([C@@H](C)CO)C[C@H](C)[C@H](CN(C)Cc2ccccc2)OCCCC[C@@H](C)O3)cc1	-50.92
C[C@H](CO)N1C[C@H](C)[C@H](CN(C)CC2CCCCC2)OCCCC[C@H](C)Oc2ccc(NC(=O)Nc3ccc(F)cc3)cc2C1=O	-79.26
C[C@@H]1CCCCO[C@@H](CN(C)Cc2ccccc2)[C@H](C)CN([C@H](C)CO)C(=O)c2cc(NC(=O)NC3CCCCC3)ccc2O1	-62.25
C[C@H]1CN([C@@H](C)CO)S(=O)(=O)c2ccc(C#CCC3CCCC3)cc2O[C@H]1CN(C)C	-74.69
C[C@@H]1CN([C@@H](C)CO)S(=O)(=O)c2ccc(C#CC3CC3)cc2O[C@H]1CN(C)Cc1ccncc1	-48.1
COc1ccc2c3c(n(C)c2c1)[C@H](CO)N(C(=O)C1CC1)CC31CCN(Cc2cccc(F)c2)CC1	-43.93
COc1cccc(-c2ccc3c(c2)[C@@H]2[C@@H](CCN2S(=O)(=O)c2ccccc2OC)[C@H](CO)N3C)c1	-49.79
Fc1ccc(-c2ccc(C3[C@@H]4CN(Cc5cccc(F)c5)C[C@H]3N4)cc2)cc1 (some centres undefined)	-80.09
COc1ccccc1S(=O)(=O)N1CC[C@@H]2[C@H](CO)Nc3ccc(-c4ccc(C#N)cc4)cc3[C@@H]21	-40.8
COc1ccc(NC(=O)N(C)C[C@@H]2Oc3cc(-c4ccc(C)cc4)ccc3S(=O)(=O)N([C@@H](C)CO)C[C@H]2C)cc1	-28.16
C[C@H]1CCCCO[C@@H](CN(C)S(=O)(=O)c2ccccc2)[C@@H](C)CN([C@@H](C)CO)C(=O)c2cc(NC(=O)C3CCCCC3)ccc2O1	-29.51
CCC(=O)N1CC2(CCN(Cc3ccc(F)cc3)CC2)c2c(n(C)c3cc(OC)ccc23)[C@H]1CO	-30.7
CN1c2ccc(-c3ccccc3F)cc2[C@H]2[C@H](CCN2S(=O)(=O)c2ccc(F)cc2)[C@H]1CO	-38.39
O=C(C[C@H]1CC[C@H]2[C@@H](COC[C@@H](O)CN2Cc2cc(F)ccc2F)O1)NCc1ccc(Oc2ccccc2)cc1	-75.56
O=C(c1ccc(F)cc1)N1CCCCN2[C@H](CO)[C@H](c3ccc(-c4ccc(F)cc4)cc3)[C@H]2C1	-52.7
C[C@@H]1CN([C@@H](C)CO)C(=O)c2c(c3ccccc3n2C)-c2ccccc2CO[C@H]1CN(C)C(=O)c1cc(Cl)cc(Cl)c1	-47.14
Cc1ccc(S(=O)(=O)N2C[C@@H](O)COC[C@H]3O[C@@H](CC(=O)NCc4ccc(Cl)c(Cl)c4)CC[C@@H]32)cc1	-36.73
C[C@H](CO)N1C[C@H](C)[C@H](CN(C)C(=O)NC2CCCCC2)OCCCC[C@H](C)Oc2ccc(NC(=O)Cc3ccccc3)cc2C1=O	-23.03
C[C@@H]1CN([C@@H](C)CO)C(=O)c2cc(NS(=O)(=O)c3ccc(Cl)cc3)ccc2O[C@@H]1CN(C)S(=O)(=O)c1ccc(Cl)cc1	-32.54
C[C@H](CO)N1C[C@H](C)[C@H](CN(C)Cc2ccc(C(F)(F)F)cc2)Oc2ccc(NC(=O)Nc3ccc(C(F)(F)F)cc3)cc2C1=O	-22.02
C[C@H](CO)N1C[C@H](C)[C@H](CN(C)C(=O)Nc2ccc(F)cc2)Oc2c(NC(=O)Nc3ccc(C(F)(F)F)cc3)cccc2C1=O	-37.17
O=S(=O)(c1ccc(F)cc1)N1CCCCN2[C@H](CO)[C@H](c3ccc(-c4ccccc4F)cc3)[C@H]2C1	-27.9
Cc1cccc(-c2ccc([C@@H]3[C@H]4CN(C(=O)c5ccc6c(c5)OCO6)CCCCN4[C@H]3CO)cc2)c1	-33.26
COc1ccc(NC(=O)Nc2ccc3c(c2)CC(=O)N([C@@H](C)CO)C[C@@H](C)[C@H](CN(C)Cc2ccccc2)O3)cc1	-45.85
C[C@@H]1CN([C@H](C)CO)C(=O)Cc2cc(NC(=O)CCCN(C)C)ccc2O[C@H]1CN(C)Cc1ccc(-c2ccccc2)cc1	-42.27
C[C@H]1CN([C@@H](C)CO)C(=O)Cc2cc(NS(C)(=O)=O)ccc2O[C@@H]1CN(C)Cc1ccc(Cl)c(Cl)c1	-57.83
COc1ccc(NC(=O)Nc2ccc3c(c2)C(=O)N([C@H](C)CO)C[C@@H](C)[C@H](CN(C)Cc2ccccc2)OCCCC[C@@H](C)O3)cc1	-61.18
CC(C)CC#Cc1cnc2c(c1)C(=O)N([C@H](C)CO)C[C@@H](C)[C@H](CN(C)Cc1ccc(F)cc1)O2	-34.14
C[C@@H]1CN([C@@H](C)CO)C(=O)c2cc(NC(=O)Nc3ccccc3)ccc2O[C@@H](C)CCCCO[C@H]1CN(C)Cc1ccc2c(c1)OCO2	-47.83
C/C=C/c1ccc2c(c1)O[C@@H](CN(C)Cc1cccc(F)c1)[C@@H](C)CN([C@@H](C)CO)S2(=O)=O	-34.76
Cc1ccc(S(=O)(=O)Nc2ccc3c(c2)CC(=O)N([C@@H](C)CO)C[C@@H](C)[C@@H](CN(C)Cc2ccc(Cl)c(Cl)c2)O3)cc1	-62.16
CN1C(=O)c2cc(NC(=O)c3ccc(Cl)cc3)ccc2OC[C@@H]2O[C@@H](CC(=O)NCc3cccc(F)c3)CC[C@H]21	-49.68
C[C@@H](O)C#Cc1cnc2c(c1)C(=O)N([C@@H](C)CO)C[C@H](C)[C@@H](CN(C)Cc1ccc(-c3ccccc3)cc1)O2	-45.26
CN(C)CC(=O)Nc1ccc2c(c1)[C@@H]1C[C@@H](CC(=O)NCc3ccc(-c4ccccc4)cc3)O[C@@H](CO)[C@@H]1O2	-42.16
COc1ccc(S(=O)(=O)Nc2ccc3c(c2)C(=O)N([C@@H](C)CO)C[C@@H](C)[C@@H](CN(C)C(=O)NC2CCCCC2)OCCCC[C@@H](C)O3)cc1	-27.78
O=C(C[C@@H]1CC[C@H]2[C@@H](COC[C@H](O)CN2Cc2nccs2)O1)NCc1ccc(-c2ccccc2)cc1	-29.93
CC(C)CC#Cc1ccc2c(c1)O[C@H](CN(C)Cc1cccnc1)[C@@H](C)CN([C@H](C)CO)S2(=O)=O	-48.35
C[C@H]1CN([C@@H](C)CO)S(=O)(=O)c2ccc(-c3ccccc3F)cc2O[C@@H]1CN(C)Cc1cccnc1	-58.61
O=C(Nc1ccc(F)cc1)N1CCCCN2[C@H](CO)[C@H](c3ccc(-c4cccc(F)c4)cc3)[C@@H]2C1	-43.31
C[C@H](CO)N1C[C@H](C)[C@@H](CN(C)Cc2cccc(F)c2)Oc2ncc(C#CCc3ccccc3)cc2C1=O	-58.36
C[C@@H]1CN([C@H](C)CO)S(=O)(=O)c2ccc(C#CC3CCCC3)cc2O[C@H]1CN(C)C(=O)Cc1ccncc1	-31.14
C[C@H]1CN([C@@H](C)CO)S(=O)(=O)c2ccc(C#Cc3ccncc3)cc2O[C@@H]1CN(C)C(=O)c1ccncc1	-25.03
C[C@H]1CN([C@@H](C)CO)C(=O)Cc2cc(NC(=O)CCC(F)(F)F)ccc2O[C@H]1CN(C)Cc1ccc(C(=O)Nc2ccccc2N)cc1	-29.69
Cc1ccc(S(=O)(=O)N(C)C[C@@H]2Oc3c(NC(=O)NC4CCCCC4)cccc3C(=O)N([C@@H](C)CO)C[C@@H]2C)cc1	-50.96
CC(C)CC#Cc1ccc([C@@H]2[C@H]3CN(C(=O)Nc4ccccc4)CCCCN3[C@H]2CO)cc1	-82.87
COc1ccccc1CN1C[C@@H]2N[C@H](C1)C2c1ccc(-c2ccccc2OC)cc1 (some centres undefined)	-64.14
C[C@@H]1CN([C@H](C)CO)C(=O)c2cc(C3=CCCCC3)cnc2O[C@H]1CN(C)Cc1ccccc1F	-39.39
C[C@@H]1CCCCO[C@H](CN(C)C(=O)Cc2ccccc2)[C@H](C)CN([C@H](C)CO)C(=O)c2cc(NS(=O)(=O)c3ccccc3)ccc2O1	-29.35

From PubChem BioAssay record AID1053133 (Broad Institute, 2014).